Values from PubChem BioAssay AID1259308 (NCATS, 2017).

- Test: 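Candidate targets for better recombinant protein yield in mammalian cells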 (primary screen)
- Cell system: human HEK293 embryonic kidney cells stably expressing firefly luciferase (HEK-CMV-Luc2-Hygro)
- Reagent: single siRNA against human genes, 0.8 pmol siRNA per well
- Duration: 72 h
- Measurement: 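Luciferase light (ONE-Glo) measured on one replicate plate set and viability (CellTiter-Glo) on the other, scaled to a negative control siRNA, with robust z-scores and luciferase per cell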
- Reading the numbers: total luciferase, z-score and total luciferase, % of control: higher = more reporter protein produced
- Active means: 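An siRNA counts as active if its total luciferase robust z-score exceeds 3; genes with two or more such siRNAs out of three were retested with fresh siRNAs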
- Meaning of the calls: active = raised luciferase; inactive = no rise
The deposit covers about 59,000 reagents; shown is an unselected part. About 1,510 of them (2.6%) count as active. 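Calls use total luciferase alone and ignore viability, so some active siRNAs may act by altering cell number.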 The numbers tell different reagents against one gene apart. Not all columns of the deposit are shown.

{"Gene":"HGFAC (GeneID 3083)","reagent no.":1,"total luciferase, z-score":-0.755,"total luciferase, % of control":66.9,"activity call":"inactive"}
{"Gene":"HGFAC (GeneID 3083)","reagent no.":2,"total luciferase, z-score":-2.11,"total luciferase, % of control":39.9,"activity call":"inactive"}
{"Gene":"HGFAC (GeneID 3083)","reagent no.":3,"total luciferase, z-score":-0.839,"total luciferase, % of control":65.2,"activity call":"inactive"}
{"Gene":"CFAP99 (GeneID 402160)","reagent no.":1,"total luciferase, z-score":1.47,"total luciferase, % of control":111,"activity call":"inactive"}
{"Gene":"CFAP99 (GeneID 402160)","reagent no.":2,"total luciferase, z-score":0.588,"total luciferase, % of control":93.6,"activity call":"inactive"}
{"Gene":"CFAP99 (GeneID 402160)","reagent no.":3,"total luciferase, z-score":3.02,"total luciferase, % of control":142,"activity call":"active"}
{"Gene":"CFAP99 (GeneID 402160)","reagent no.":4,"total luciferase, z-score":-1.14,"total luciferase, % of control":59.2,"activity call":"inactive"}
{"Gene":"CFAP99 (GeneID 402160)","reagent no.":5,"total luciferase, z-score":-0.475,"total luciferase, % of control":72.4,"activity call":"inactive"}
{"Gene":"CFAP99 (GeneID 402160)","reagent no.":6,"total luciferase, z-score":-1.41,"total luciferase, % of control":53.8,"activity call":"inactive"}
{"Gene":"H1-10 (GeneID 8971)","reagent no.":1,"total luciferase, z-score":0.124,"total luciferase, % of control":84.4,"activity call":"inactive"}
{"Gene":"H1-10 (GeneID 8971)","reagent no.":2,"total luciferase, z-score":-0.873,"total luciferase, % of control":64.5,"activity call":"inactive"}
{"Gene":"H1-10 (GeneID 8971)","reagent no.":3,"total luciferase, z-score":1.36,"total luciferase, % of control":109,"activity call":"inactive"}
{"Gene":"HSD17B2 (GeneID 3294)","reagent no.":1,"total luciferase, z-score":-0.0345,"total luciferase, % of control":81.2,"activity call":"inactive"}
{"Gene":"HSD17B2 (GeneID 3294)","reagent no.":2,"total luciferase, z-score":0.757,"total luciferase, % of control":96.9,"activity call":"inactive"}
{"Gene":"HSD17B2 (GeneID 3294)","reagent no.":3,"total luciferase, z-score":0.286,"total luciferase, % of control":87.6,"activity call":"inactive"}
{"Gene":"TH (GeneID 7054)","reagent no.":1,"total luciferase, z-score":-1.04,"total luciferase, % of control":61.2,"activity call":"inactive"}
{"Gene":"TH (GeneID 7054)","reagent no.":2,"total luciferase, z-score":2.16,"total luciferase, % of control":125,"activity call":"inactive"}
{"Gene":"TH (GeneID 7054)","reagent no.":3,"total luciferase, z-score":0.414,"total luciferase, % of control":90.1,"activity call":"inactive"}
{"Gene":"SUSD3 (GeneID 203328)","reagent no.":1,"total luciferase, z-score":1.73,"total luciferase, % of control":116,"activity call":"inactive"}
{"Gene":"SUSD3 (GeneID 203328)","reagent no.":2,"total luciferase, z-score":-0.553,"total luciferase, % of control":70.9,"activity call":"inactive"}
{"Gene":"SUSD3 (GeneID 203328)","reagent no.":3,"total luciferase, z-score":0.0609,"total luciferase, % of control":83.1,"activity call":"inactive"}
{"Gene":"CWC25 (GeneID 54883)","reagent no.":1,"total luciferase, z-score":0.461,"total luciferase, % of control":91.1,"activity call":"inactive"}
{"Gene":"CWC25 (GeneID 54883)","reagent no.":2,"total luciferase, z-score":0.983,"total luciferase, % of control":101,"activity call":"inactive"}
{"Gene":"CWC25 (GeneID 54883)","reagent no.":3,"total luciferase, z-score":0.848,"total luciferase, % of control":98.8,"activity call":"inactive"}
{"Gene":"ARAP1 (GeneID 116985)","reagent no.":1,"total luciferase, z-score":-1.98,"total luciferase, % of control":42.5,"activity call":"inactive"}
{"Gene":"ARAP1 (GeneID 116985)","reagent no.":2,"total luciferase, z-score":-0.233,"total luciferase, % of control":77.3,"activity call":"inactive"}
{"Gene":"ARAP1 (GeneID 116985)","reagent no.":3,"total luciferase, z-score":0.621,"total luciferase, % of control":94.2,"activity call":"inactive"}
{"Gene":"MTIF3 (GeneID 219402)","reagent no.":1,"total luciferase, z-score":0.696,"total luciferase, % of control":95.7,"activity call":"inactive"}
{"Gene":"MTIF3 (GeneID 219402)","reagent no.":2,"total luciferase, z-score":-0.693,"total luciferase, % of control":68.1,"activity call":"inactive"}
{"Gene":"MTIF3 (GeneID 219402)","reagent no.":3,"total luciferase, z-score":5.2,"total luciferase, % of control":185,"activity call":"active"}
{"Gene":"STK16 (GeneID 8576)","reagent no.":1,"total luciferase, z-score":-0.426,"total luciferase, % of control":73.4,"activity call":"inactive"}
{"Gene":"STK16 (GeneID 8576)","reagent no.":2,"total luciferase, z-score":0.445,"total luciferase, % of control":90.7,"activity call":"inactive"}
{"Gene":"STK16 (GeneID 8576)","reagent no.":3,"total luciferase, z-score":-0.605,"total luciferase, % of control":69.8,"activity call":"inactive"}
